The exact form of at least one protein or probe is not confirmed. A weaker result is weaker than the reference pair of the same experiment. At least one verdict was read from the data and is not stated in words by the source.

The data set deals with CvkR (Alr3614) (Anabaena (Nostoc) sp. PCC 7120) (UniProt A0ACD6B984). The data set can be described thus: EMSA. The note with it: residues 19-168.
“GTATAACATTATGTGTTTTG (double strand) [P20]”: the binding result is recorded as “binds more weakly”.

“TAAAACACATTAGTGCTTTGTATAACATTATGTGTTTTG (double strand) [P39]”: the binding result is “binds more weakly”.

For the sequence “TGCTTTGTATAACATTATGTGTTTTG (double strand) [P26]”, the binding result was “binds more weakly”.
